In PubChem BioAssay AID588499 (NMMLSC, 2011):
Among all 360,000 compounds or so, about 610 (0.17%) were called active. Inconclusive results, whose numbers are uncertain, are shown with a selection of clear calls. Cut-off read from the data, not from the text of the source: active = inhibition above about 30%; inconclusive = no clear call, values can overlap the other calls; inactive = below that.

System: Botulinum neurotoxin type A light chain protease (Clostridium botulinum A str. ATCC 3502)
Assay: blockers of BoNT/A LC substrate cleavage – biochemical, flow cytometry, MLPCN library, primary screen (AID 588499); note: plate controls were buffer without enzyme for full effect and enzyme alone for no effect
Settings: multiplex microsphere protease substrate cleavage, at 10 µM, hits give high values

Compound | inhibition
C=CCCCCCCCCc1nc(SCC(C)=O)n[nH]1 | inconclusive: 7.7%
CCC(=O)N1N=C(c2ccc(Cl)cc2)CC1c1ccco1 (stereo not drawn) | inconclusive: 2.7%
CN(Cc1ccc(Cl)cc1)C(c1cc2ccccc2o1)c1nnnn1C(C)(C)C (stereo not drawn) | inactive: -0.2%
Cn1cc(/C=C2\SC(=S)N(N3CCOCC3)C2=O)c2ccccc21 | inconclusive: -0.1%
CN(C)c1ccc(NC(=O)CSc2nnc(-c3cccs3)n2Cc2ccco2)cc1 | inconclusive: 3.7%
Cc1ccc(NC(=S)NNC(=O)c2cccc([N+](=O)[O-])c2)cc1Cl | inconclusive: -45.6%
NC(=O)N/N=C/c1ccc(-c2ccc(S(=O)(=O)Nc3ncccn3)cc2)o1 | inactive: 4.4%
Cc1ccc(S(=O)(=O)N2CCN(C(=O)N3CCOCC3)C2c2ccc(N(C)C)cc2)cc1 (stereo not drawn) | inconclusive: 2.1%
COc1ccc2c(c1OC)C(=O)N1C(C(=O)O)Cc3c([nH]c4ccccc34)C21 (stereo not drawn) | inactive: 1.4%
NS(=O)(=O)c1ccc(NC(=O)C(Sc2ccccc2)c2ccccc2)cc1 (stereo not drawn) | inactive: -0.3%
Cn1ccc(C(=O)NC(=S)N2CCSCC2)n1 | inactive: 0%
CSc1n[nH]c(-c2ccc(C(F)(F)F)cc2)n1 | inconclusive: -15.6%
CCNS(=O)(=O)c1ccc(NC(=O)c2ccccc2OCC)cc1 | inconclusive: 0.7%
Cc1ccc(S(=O)(=O)Cc2ccc(C(=O)NCCCN3CCN(C)CC3)o2)cc1 | inconclusive: -2.6%
CCOC(=O)c1cc(-c2ccc(OC)cc2F)nc2c1c(C)nn2CCC#N | inconclusive: -3.8%
CCOC(=O)c1cc(OC(=O)c2cccc([N+](=O)[O-])c2)n(-c2ccccc2)n1 | inconclusive: -5.6%
O=C(NC1CCCCCC1)C1C2C=CC3(CN(Cc4cccnc4)C(=O)C13)O2 (stereo not drawn) | inactive: 0.2%
CC(C)(C)C1(c2ccccc2)NC(=O)N(CC(=O)N2CCOCC2)C1=O (stereo not drawn) | inconclusive: 4.6%
COCCCNC(=S)NNC(=O)c1csc(C)n1 | inconclusive: -3.2%
CC(=O)NC(C)C(c1cccs1)N1CCN(c2ccccc2)CC1 (stereo not drawn) | inconclusive: 0.5%

Shown as labelled records: 3 of the compounds above.
CN(C)c1ccc(NC(=O)CSc2nnc(-c3cccs3)n2Cc2ccco2)cc1
  inhibition: inconclusive: 3.7%
CCOC(=O)c1cc(-c2ccc(OC)cc2F)nc2c1c(C)nn2CCC#N
  inhibition: inconclusive: -3.8%
O=C(NC1CCCCCC1)C1C2C=CC3(CN(Cc4cccnc4)C(=O)C13)O2 (stereo not drawn)
  inhibition: inactive: 0.2%

Carrying on.

Compound | inhibition
CCNC(=S)NNC(=O)c1cccn(Cc2ccc(Cl)cc2Cl)c1=O | inconclusive: 0%
COC(=O)Cc1ccc(NC(=O)c2ccc(NC(=O)c3ccco3)cc2)cc1 | inactive: 0.8%
CC(=O)c1c(C)[nH]c(C(=O)OCC(=O)c2c[nH]c3ccccc23)c1C | inactive: 0.2%
Cc1cc(C(=O)OC(C)C(=O)NC2CCCCC2C)c2ccccc2n1 (stereo not drawn) | inactive: -0.3%
Cc1cc(C)nc(N2N=C(C(C)(C)C)CC2=O)n1 | inconclusive: -0.8%
Cc1cc2ccccc2n1CCNC(=O)COc1ccc2ccccc2c1 | active: 61.4%
O=[N+]([O-])c1ccc(N(c2ccccc2)c2ccccc2)cc1 | active: 58.2%
CCCCC[C@H]1CCCCC[C@H](O)C[C@@H](O)[C@H](O)/C=C/C(=O)O1 | inactive: -0.1%
CCNC(=O)CN(c1ccc(C)cc1)S(=O)(=O)c1ccc(SC)cc1 | inconclusive: -0.3%
CS/C(=C\C(=O)c1ccco1)Nc1ccccc1Cl | inconclusive: -19.8%
CC1=CSC2=NC(C(F)(F)F)(C(F)(F)F)NC(=O)N12 | inconclusive: -53.9%
COCCSc1nnc(NC(=O)Cc2ccccc2OC)s1 | inconclusive: -0.6%
O=C(Cc1cccc(NC(=O)C2CCCN(C(=O)C3CCCCC3)C2)c1)Nc1cccc(C(=O)N2CCOCC2)c1 (stereo not drawn) | inactive: -0.3%
COc1ccc(CN2CCCC(CO)(Cc3ccc(F)cc3)C2)c(OC)c1OC (stereo not drawn) | inconclusive: -3.2%
NS(=O)(=O)c1ccc(CCNC(=O)Cc2cccs2)cc1 | inconclusive: -2.7%
Fc1cccc(-n2c(-c3ccco3)nc3nc4ccccc4nc32)c1 | inactive: 0.6%
Nc1ccc(N)c(C(=O)O)c1 | inactive: -3.7%
COc1ccccc1OCc1nc2ccccc2[nH]1 | inactive: -1.4%
Cc1cccc(N2CCN(S(=O)(=O)c3ccc4c(c3)n(C)c(=O)c(=O)n4C)CC2C)c1 (stereo not drawn) | inconclusive: 5.2%
O=C1CN(C(=O)CN2CCN(S(=O)(=O)c3ccccc3F)CC2)c2ccccc2N1 | inactive: 0.3%

Compound | inhibition
Cc1ccc(CN(CC(=O)NC2CCCC2)C(=O)c2csnn2)cc1 | inactive: -2.3%
COc1cccc(C(C)(O)c2nc(-c3cnc4ccccc4c3)cs2)c1 (stereo not drawn) | inactive: 0.3%
COc1ccc(CNC(=O)c2cnn3c(C(F)F)cc(C)nc23)cc1OC | inactive: -0.3%
COc1ccc(NC(=O)C23CC4CC(C2)CC(n2cnc(Br)n2)(C4)C3)cc1OC | inconclusive: -2.1%
COCCCNC(=S)Nc1cc(C)c(C)cc1C | inconclusive: -12.9%
O=[N+]([O-])c1ccccc1S(=O)(=O)N1CCN(c2ccccc2)CC1 | inconclusive: -4.2%
O=c1ccc(-c2ccc(S(=O)(=O)Nc3ccc(F)cc3)s2)n[nH]1 | inactive: 0.3%
CN1CCN(S(=O)(=O)c2ccc(NC(=O)c3csc4ccccc34)cc2)CC1 | inconclusive: -0.5%
Cc1c(OCC(=O)N2CCC(C(=O)NCCCC(=O)O)CC2)ccc2c1oc(=O)c1ccccc12 | inactive: -0.2%
CCc1cccc(C)c1NC(=S)N(CCOC)C(C)c1ccco1 (stereo not drawn) | inactive: -0.1%
COC(=O)c1cc(OC)c(OC)cc1NC(=S)N1CCN(C)CC1 | inactive: -0.9%
Cc1ccc(/C=N/n2c(-c3ccncc3)n[nH]c2=S)s1 | inconclusive: -3.3%
Cc1cc(C)nc(SCC(=O)Nc2ccc(S(=O)(=O)NC(C)(C)C)cc2)n1 | inconclusive: 0.1%
Cc1ccc(-c2ccc(/C=C(\C#N)C(N)=S)n2C)cc1 | inconclusive: 15.3%
FC(F)(F)c1cc(N2CCNCC2)c2ccccc2n1 | inconclusive: 8.7%
Cn1c(=O)cc(OCC(=O)NC2CCCCC2)c2ccccc21 | inconclusive: -0.3%
CNC(=O)/C(C#N)=C1/SC(Cc2ccc(F)cc2)C(=O)N1c1ccccc1 (stereo not drawn) | inconclusive: 4.3%
O=S(=O)(c1ccc(N2CCN(S(=O)(=O)c3ccccc3)CC2)nc1)N1CCCC1 | inactive: -0.1%
